Measurements from US8481524B2, “c-MET protein kinase inhibitors” (Vertex Pharmaceuticals Incorporated, priority 2007, dated 2013).
For at least one compound, name, drawing or mass did not settle the structure.

System: c-Met in Snu5 gastric carcinoma cells
Assay: Inhibition of c-Met activity in Snu5 gastric carcinoma cells (Snu5-AP1-Luc-Pest luciferase signal)
Type: cell-based, human
Details: Snu5 gastric carcinoma cell assay, comparison of IC50 values
Source text: Compounds of the invention were also screened for their ability to inhibit the Luciferase-induced signal in an engineered Snu5 cell line. Snu5 [obtained from American Type Culture Collection (Catalog number CRL-5973)] is a human gastric carcinoma known to overexpress c-Met, which is constitutively active. The cell line was transduced with the retrovirus, pCLPCX, which contains a genetic construct consisting of 6×AP1 promoter response elements and a luciferase gene having a C-terminal PEST sequence (proteolytic signal from mouse ornithine decarboxylase, which reduces the half-life of the luciferase). The constitutively active cMet activates cellular pathways (principally MAP kinase), resulting in AP-1-induced transcription of luciferase-PEST and translation into the final product, the activity of which is quantifiable as a chemiluminescent readout upon the addition of luciferin (Steady-Glo from Promega.). Residual luminescence is strongly correlated to the inhibition of c-Met. A stable cell line was obtained by selecting the new cell line (Snu5-AP1-Luc-Pest) with puromycin. […] The Snu5-AP1-Luc-Pest cells were counted and diluted to 200,000-cells/mL solution. […] The plate was read on a 1450 Microbeta Liquid Scintillation and Luminescence Counter (Perkin-Elmer). The IC50s were calculated using a 4-parameter fit using the graphing software Prism (GraphPad).

With `COc1ccc(-n2nnnc2-c2cc(-c3cnn(C4C[C@H]5CNC[C@H]5C4)c3)cnc2N)c(F)c1F` (stereo partly shown) [Compound 49] the “activity compared with corresponding analog wherein R5 is hydrogen” value was “more active”.
